Results deposited as PubChem BioAssay AID743454 (Peter MacCallum Cancer Centre, 2014)

Test: 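Genes whose loss kills vorinostat-resistant colon cancer cells under vorinostat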 (primary screen)
System: human HCT116-VR colon cancer cells, selected for vorinostat resistance
Knock-down reagent: siRNA pool against human genes, 40 nM siRNA pool
Duration: vorinostat for 24 h, read-out about 72 h after transfection
Treatment: vorinostat at 2.5 µM final
Measurement: 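Two measures, CellTiter-Fluor viability and luminescent caspase 3/7 activity, each as fold change against same-plate mock wells, mean of duplicates, then screen-wide robust z-score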
Scale: viability robust z-score: higher = more viable cells than screen typical; caspase robust z-score: higher = more caspase 3/7 activity than screen typical
Rule for the call: 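a knock-down is a hit when classed RV1 or RV2 for lowered viability, or CA1 or CA2 for caspase activation; those lethal without drug were dropped; hits were retested singly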
The whole screen tested about 18,000 reagents; this is a part drawn at random. 450 of them (2.5%) were called active. 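Single biological run; no consistent viability z cut-off exists, so the class columns, not z-scores, define the calls.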

| target | viability hit class | caspase hit class | viability robust z-score | caspase robust z-score | outcome |
| --- | --- | --- | --- | --- | --- |
| NPNT (nephronectin) | no change | no change | 0.57 | 0.1 | inactive |
| FOSB (FosB proto-oncogene, AP-1 transcription factor subunit) | no change | no change | 0.84 | 1.82 | inactive |
| ABHD2 (abhydrolase domain containing 2, acylglycerol lipase) | no change | no change | -1.07 | 0.18 | inactive |
| CSNK2B (casein kinase 2 beta) | no change | no change | -1.02 | 1.17 | inactive |
| KIF12 (kinesin family member 12) | RV2 (reduced viability) | no change | -3.17 | 2.91 | active |
| ANKRD55 (ankyrin repeat domain 55) | no change | no change | -0.2 | -0.38 | inactive |
| DHODH (dihydroorotate dehydrogenase (quinone)) | no change | no change | 0.54 | -0.82 | inactive |
| CRIP1 (cysteine rich protein 1) | no change | no change | 0.64 | -0.24 | inactive |
| OTP (orthopedia homeobox) | no change | no change | 0.14 | -0.38 | inactive |
| SHOC1 (shortage in chiasmata 1) | no change | no change | 0.6 | -0.48 | inactive |
| CCDC121 (coiled-coil domain containing 121) | no change | no change | -1.25 | 3.38 | inactive |
| ASTN1 (astrotactin 1) | no change | no change | -0.88 | -0.28 | inactive |
| SLC5A2 | no change | no change | 0.32 | 1.82 | inactive |
| TGM4 (transglutaminase 4) | no change | no change | -0.94 | 0.34 | inactive |
| TENT5C (terminal nucleotidyltransferase 5C) | no change | no change | 1.06 | 0.08 | inactive |
| ANGPT2 (angiopoietin 2) | no change | no change | -0.15 | 0.76 | inactive |
| SV2B (synaptic vesicle glycoprotein 2B) | no change | no change | 0.46 | -0.55 | inactive |
| ELF1 (E74 like ETS transcription factor 1) | no change | no change | -0.34 | -0.46 | inactive |
| GJD3 (gap junction protein delta 3) | no change | no change | 0.3 | -0.59 | inactive |
| TMTC2 (transmembrane O-mannosyltransferase targeting cadherins 2) | no change | no change | -1.05 | -0.88 | inactive |
| LY6G5C (lymphocyte antigen 6 family member G5C) | no change | no change | 1.43 | 0 | inactive |
| TBATA (thymus, brain and testes associated) | no change | no change | -1.21 | 1.96 | inactive |
| ZNF774 (zinc finger protein 774) | no change | no change | -0.52 | -1.18 | inactive |
| KLRK1 (killer cell lectin like receptor K1) | no change | no change | -0.47 | -0.8 | inactive |
| BZW2 (basic leucine zipper and W2 domains 2) | no change | no change | 1.3 | -1.39 | inactive |
| PCSK4 (proprotein convertase subtilisin/kexin type 4) | no change | no change | 0.98 | 0.34 | inactive |
| OR2T5 (olfactory receptor family 2 subfamily T member 5) | no change | no change | 0.3 | 0.97 | inactive |
| CDH12 (cadherin 12) | no change | no change | 0.96 | 0.16 | inactive |
| ANGPTL2 (angiopoietin like 2) | no change | no change | 0.39 | -0.12 | inactive |
| PUSL1 (pseudouridine synthase like 1) | no change | no change | -0.6 | -0.03 | inactive |
| PDIA3 (protein disulfide isomerase family A member 3) | no change | no change | -2.23 | 0.32 | inactive |
| SMIM14 (small integral membrane protein 14) | no change | no change | 0.1 | -0.88 | inactive |
| SYCN (syncollin) | no change | no change | -0.14 | -0.32 | inactive |
| CIAO2B (cytosolic iron-sulfur assembly component 2B) | no change | no change | -1.06 | -0.18 | inactive |
| C14orf184 (retired record) | no change | no change | 0.92 | -0.75 | inactive |
| HM13 (histocompatibility minor 13) | no change | no change | -1.02 | 0.78 | inactive |
| SSMEM1 (serine rich single-pass membrane protein 1) | no change | no change | -0.43 | -0.74 | inactive |
| NDC80 (NDC80 kinetochore complex component) | no change | no change | -3.34 | 4.11 | inactive |
| RHOQ (ras homolog family member Q) | no change | no change | -0.3 | -1.14 | inactive |
| EPHA3 (EPH receptor A3) | no change | no change | -0.44 | -1.05 | inactive |
| DDX59 (DEAD-box helicase 59) | no change | no change | 1.09 | -0.2 | inactive |
| CDRT15P3 (CDRT15 pseudogene 3) | no change | no change | -2.85 | 0.96 | inactive |
| POLR2F (RNA polymerase II, I and III subunit F) | no change | no change | -5.34 | 1.68 | inactive |
| PLEKHA7 (pleckstrin homology domain containing A7) | no change | no change | -0.46 | 1.77 | inactive |
| SGSM3 (small G protein signaling modulator 3) | no change | no change | 0.5 | 0.1 | inactive |
| DYDC2 (DPY30 domain containing 2) | no change | no change | 0.27 | 2.62 | inactive |
| INPP4A (inositol polyphosphate-4-phosphatase type I A) | no change | no change | -0.36 | -0.3 | inactive |
| FAM194C (family with sequence similarity 194 member C) | no change | no change | 0.4 | -0.72 | inactive |
| GPR101 (G protein-coupled receptor 101) | RV2 (reduced viability) | no change | -3.34 | -0.15 | active |
| VEGFD (vascular endothelial growth factor D) | no change | no change | 0.24 | -0.4 | inactive |
| MAFG (MAF bZIP transcription factor G) | no change | no change | -2.71 | 1.17 | inactive |
| HYAL4 (hyaluronidase 4) | no change | no change | -3.13 | 0.96 | inactive |
| ADGRG4 (adhesion G protein-coupled receptor G4) | no change | no change | 1.66 | -0.36 | inactive |
| FGFR1OP2 (FGFR1 oncogene partner 2) | no change | no change | 0.93 | -0.14 | inactive |
| THAP4 (THAP domain containing 4) | no change | no change | -0.64 | -1.21 | inactive |
| NDFIP1 (Nedd4 family interacting protein 1) | no change | no change | 0.1 | 0.58 | inactive |
| DNAJC16 (DnaJ heat shock protein family (Hsp40) member C16) | no change | no change | 1.25 | -0.5 | inactive |

Called active, among the entries above:
| target | viability hit class | caspase hit class | viability robust z-score | caspase robust z-score | outcome |
| --- | --- | --- | --- | --- | --- |
| KIF12 (kinesin family member 12) | RV2 (reduced viability) | no change | -3.17 | 2.91 | active |
| GPR101 (G protein-coupled receptor 101) | RV2 (reduced viability) | no change | -3.34 | -0.15 | active |
